In PubChem BioAssay AID1671190 (National Center for Advancing Translational Sciences (NCATS), 2021):
Where “and” joins values, the source holds several entries; their conditions need not be identical. Equal values may be shown once. About 6,100 (1.1%) of roughly 580,000 compounds were called active. The inconclusive results got no clear call from the source; some entries with a clear call stand among them for comparison. The call rests on the fitted dose curve; in most records, active means well fitted inhibition curve with a large enough effect; inconclusive means small, poorly fitted or top-dose-only effect, or another doubt; inactive means no such curve, though single readings can be large or run the other way. A potency beside an inconclusive call is a rough fit, not a confirmed value.

By UniProt entry, the sequences of proteins in these tests, tags left out. Where a name states a change or a piece, a line headed by the entry shows the natural chain unless it says otherwise.
UniProt P18054: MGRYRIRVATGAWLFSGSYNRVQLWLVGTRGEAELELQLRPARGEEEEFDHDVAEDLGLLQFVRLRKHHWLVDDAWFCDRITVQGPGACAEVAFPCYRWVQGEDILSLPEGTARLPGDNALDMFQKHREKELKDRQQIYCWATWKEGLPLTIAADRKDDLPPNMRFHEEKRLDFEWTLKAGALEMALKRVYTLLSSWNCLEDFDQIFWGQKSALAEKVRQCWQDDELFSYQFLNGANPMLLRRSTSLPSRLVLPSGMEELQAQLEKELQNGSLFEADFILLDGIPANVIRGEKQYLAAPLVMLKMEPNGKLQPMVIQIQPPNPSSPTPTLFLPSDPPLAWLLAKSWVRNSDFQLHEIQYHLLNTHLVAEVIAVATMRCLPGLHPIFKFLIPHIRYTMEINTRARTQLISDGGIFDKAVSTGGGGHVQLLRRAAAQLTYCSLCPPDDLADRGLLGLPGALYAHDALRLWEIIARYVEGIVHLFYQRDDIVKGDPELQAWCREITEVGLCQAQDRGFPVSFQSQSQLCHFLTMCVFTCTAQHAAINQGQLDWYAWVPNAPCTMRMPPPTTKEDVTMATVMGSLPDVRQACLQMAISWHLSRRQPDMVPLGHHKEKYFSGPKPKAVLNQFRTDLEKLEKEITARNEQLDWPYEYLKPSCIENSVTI

target: Polyunsaturated fatty acid lipoxygenase ALOX12 (Homo sapiens) (UniProt P18054); experiment: Primary qHTS assay for inhibitors of human arachidonate 12S-lipoxygenase (ALOX12): Round 2; settings: purified 12hLO, xylenol orange hydroperoxide absorbance; activity change, negative = inhibition: at 108 µM (top of the series) unless noted
Method in brief: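 Purified human 12hLO at 150 nM in 25 mM Hepes, 0.01% Triton X-100, pH 7.0, preincubated 15 min at room temperature with compound. Reaction started with 40 uM arachidonic acid, 30 min at room temperature. Hydroperoxide measured by Fe-xylenol orange, 573/405 nm absorbance ratio.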
On the % scale 0 is the no-effect control and ±100 the full control effect; potency means the concentration at half of the fitted maximal effect.

| SMILES | Potency | activity change, negative = inhibition |
| --- | --- | --- |
| CCc1c(CN2CCN(c3cccc(C)c3)C(C)C2)csc1C (centres undefined) | inconclusive: 141 µM [inhibitor, partial curve, poor fit] |  |
| Cc1ccc(S(=O)(=O)NNC(=O)C23CCC(CC2)C3)cc1 | inconclusive: 79.4 µM [inhibitor, partial curve, poor fit] |  |
| Oc1ccc2c(c1)CCCC1(CCCO1)O2 (centres undefined) | inconclusive: 17.8 µM [inhibitor, full curve, poor fit] |  |
| CC(=O)N1N=C(c2ccccc2)OC1(C)CC(=O)Nc1ccccc1 (centres undefined) |  | inconclusive: -30.3% [inhibitor] |
| CCN(CC(=O)NCc1ccc(Cl)cc1)C(=O)c1ccc(C#N)cc1 |  | inactive: -18.3% |
| CCCc1[nH]nc2c1C(c1cccc(OC(=O)c3ccco3)c1)C(C#N)=C(N)O2 (centres undefined) | inconclusive: 44.7 µM [inhibitor, partial curve] |  |
| CSc1ccc(/C=N/Nc2cccc(Cl)c2)cc1 | active: 1.41 µM |  |
| O=C(CN1CCN(CC(=O)c2ccc(Cl)cc2)CC1)c1ccc(Cl)cc1 | inconclusive: 44.7 µM [inhibitor, partial curve] |  |
| NS(=O)(=O)c1ccc(CCNC(=O)Cc2ccc(S(=O)(=O)N3CCOCC3)s2)cc1 | inconclusive: 1.41 µM [inhibitor, full curve, poor fit] |  |
| COc1cc(=O)n(-c2ccc(C)cc2)nc1C(=O)NCc1ccc(C)cc1 | inconclusive: 89.1 µM [inhibitor, partial curve, poor fit] |  |
| O=C1C[C@@H](c2ccc(O)c(O)c2)Oc2c1ccc(O[C@@H]1O[C@H](CO)[C@@H](O)[C@H](O)[C@H]1O)c2O | inconclusive: 39.8 µM [inhibitor, partial curve, poor fit] |  |
| CC(C)C(=O)Nc1cccc(NC(=O)C2(c3ccccc3)CCCC2)c1 | inconclusive: 5.62 µM [inhibitor, full curve, poor fit] |  |
| O=C(NC(=O)c1ccccc1N1CCCCC1)Nc1ccc(Br)cc1 |  | inactive: 5.64% |
| CC(C)=CC(=O)N(CC1CCOC1)C1CC1 (centres undefined) | inconclusive: 10 µM [inhibitor, full curve] |  |
| COc1cc(/C=C2\C(=O)ON=C2c2ccc(Cl)cc2)ccc1O | inconclusive: 2.24 µM [inhibitor, full curve, poor fit] |  |
| CCn1nc(C(=O)OCCOc2ccc(OC)cc2)c2ccccc2c1=O |  | inactive: -3.52% |
| COC(=O)c1ccc(NC(=S)NCCc2ccccc2C)cc1 | inconclusive: 44.7 µM [inhibitor, partial curve, poor fit] |  |
| CCOc1cc(/C=N/Nc2ccccc2Cl)ccc1OCC(=O)O | inconclusive: 79.4 µM [inhibitor, partial curve, poor fit] |  |
| CNC(=O)[C@@H](c1ccccc1)N1CCC[C@H]1C(=O)N(C)Cc1ccccc1 | inconclusive: 20 µM [inhibitor, full curve, poor fit] |  |
| NC(=O)CC(NC(=O)Cc1ccc(Br)cc1)c1ccc(NC2CCCCCCC2)c([N+](=O)[O-])c1 (centres undefined) |  | inactive: -14% |
| CCn1cc(/C=C(\NC(=O)c2cc(OC)c(OC)c(OC)c2)C(=O)N2CCN(C)CC2)c2ccccc21 | inconclusive: 15.8 µM [inhibitor, full curve, poor fit] |  |
| Cc1cc(C)nc(Sc2ccc(/C=C(\C#N)C(N)=O)o2)n1 |  | inactive: 4.52% |
| COc1ccc(Nc2nc(OC)nc(OC)n2)cc1 |  | inactive: 25.1% |

A different layout for some results above.
SMILES	Potency	activity change, negative = inhibition
Cc1cc(C)nc(Sc2ccc(/C=C(\C#N)C(N)=O)o2)n1		inactive: 4.52%
COc1ccc(Nc2nc(OC)nc(OC)n2)cc1		inactive: 25.1%

Additional records follow.

| SMILES | Potency | activity change, negative = inhibition |
| --- | --- | --- |
| COc1ccc(NC(=O)CN(C)C(=O)c2ccc(C)c(S(=O)(=O)N3CCCCC3)c2)cc1 |  | inactive: 112% |
| OC(CN1CCN(c2ccc(F)cc2)CC1)c1ccc(Cl)cc1 (centres undefined) | inconclusive: 1.26 µM [inhibitor, full curve, poor fit] |  |
| Cc1ccccc1-c1nc2cc(NC(=O)/C=C/c3ccco3)ccc2o1 | active: 25.1 µM |  |
| CCOC(=O)c1sc(Nc2ccccc2C)nc1C |  | inactive: 39.4% |
| CCc1nc2c(cnn2-c2ccc(Cl)cc2)c(=O)n1-c1ccc(OC)cc1 | inconclusive: 56.2 µM [inhibitor, partial curve, poor fit] |  |
| CCOc1ccc(NC(=O)CN(C)C(=O)c2ccccc2OCc2c(C)noc2C)cc1OCC |  | inactive: 4.8% |
| Cc1ccc(-c2cc(C(=O)Nc3cccnc3)c3ccccc3n2)o1 | active: 10 µM |  |
| NC(=O)CC(NC(=O)Cc1ccc(Br)cc1)c1ccc(NCc2ccc(F)c(F)c2)c([N+](=O)[O-])c1 (centres undefined) |  | inactive: -26.5% |
| COc1ccc(-c2noc(CCC(=O)N3CCc4sccc4C3c3cccs3)n2)cc1OC (centres undefined) | inconclusive: 3.55 µM [inhibitor, single point] |  |
| CC(=O)N1CCc2cc(NC(C)C(=O)Nc3ccc(SC(F)F)cc3)ccc21 (centres undefined) |  | inactive: 1.33% |
| O=C(CNc1cccc2ccccc12)N/N=C/c1ccccn1 |  | inactive: 40.9% |
| c1ccc(Oc2cccc(OCCCCN3CCCC3)c2)cc1 | inconclusive: 11.2 µM [inhibitor, full curve, poor fit] |  |
| O=S(CCc1ccncc1)Cc1ccc2c3c(cccc13)CC2 (centres undefined) | inconclusive: 11.2 µM [inhibitor, partial curve, poor fit] |  |
| COc1ccc(OCCNC(=O)C2(C)CCN2Cc2ccc3ccccc3c2)cc1 (centres undefined) |  | inactive: -0.756% |
| COc1ccc(/C=C/C(=O)OCC(=O)Nc2ccc(Cl)c(S(=O)(=O)N(C)C)c2)cc1OC | active: 0.794 µM |  |
| COc1cccc(Cl)c1-c1nccc2c(=O)cc(-c3ccccn3)oc12 | inconclusive: 63.1 µM [inhibitor, partial curve, poor fit] |  |
| CC(C)c1ccc(NC(=O)Cn2c(=O)oc3cc(S(=O)(=O)N4CCCC4)ccc32)cc1 |  | inactive: -18.1% |
| Cn1c([C@H]2CCN(C(=O)COc3ccccc3)C2)nc2ccccc21 |  | inactive: -18.8% [at 176 µM] |
| CC(=O)N1CCC(C2CCN(S(=O)(=O)c3ccc(Cl)cc3C)C2)CC1 (centres undefined) | inconclusive: 56.2 µM [inhibitor, partial curve, poor fit] |  |
| NC1C[C@H](Cn2cc(-c3cccnc3)nn2)[C@@H](O)[C@H]1O (some centres undefined) | inconclusive: 15.8 µM [inhibitor, full curve, poor fit] |  |
| CCc1nnc(NC(=O)c2cc(-c3ccccc3)nc3ccccc23)s1 |  | inactive: 8.9% |
| CCc1c(C)c(C#N)c2nc3ccccc3n2c1Nc1cccc(C(F)(F)F)c1 | inconclusive: 0.447 µM [inhibitor, full curve, poor fit] |  |
| Cc1ccc(-c2nccn3cc(C(=O)N4CCN(C5CCN(C)CC5)CC4)nc23)cc1 |  | inactive: 1.36% |

Grouped by structure: the entries above containing an aryl thioether with sulfur outside any ring (three)

| SMILES | Potency | activity change, negative = inhibition |
| --- | --- | --- |
| CSc1ccc(/C=N/Nc2cccc(Cl)c2)cc1 | active: 1.41 µM |  |
| Cc1cc(C)nc(Sc2ccc(/C=C(\C#N)C(N)=O)o2)n1 |  | inactive: 4.52% |
| CC(=O)N1CCc2cc(NC(C)C(=O)Nc3ccc(SC(F)F)cc3)ccc21 (centres undefined) |  | inactive: 1.33% |

(cont.)

| SMILES | Potency | activity change, negative = inhibition |
| --- | --- | --- |
| COc1ccc(-c2nc(S(=O)(=O)c3ccc(C)cc3)c(NCc3ccccc3)o2)cc1 | inconclusive: 56.2 µM [inhibitor, partial curve, poor fit] |  |
| Cc1[nH]c2ccccc2c1C(c1ccc(Cl)cc1)c1c(C)[nH]c2ccccc12 | inconclusive: 7.94 µM [inhibitor, full curve, poor fit] |  |
| Cc1ccc(C(=O)c2sc(Nc3ccccc3)nc2N)c(C)c1 | inconclusive: 35.5 µM [inhibitor, partial curve] |  |
| CCCCCCC1CC(CCc2nc(=S)[nH][nH]2)C(=O)O1 (centres undefined) | inconclusive: 39.8 µM [inhibitor, partial curve, poor fit] |  |
| Cc1cc(SCC(=O)c2ccccc2)nc(=O)[nH]1 | inconclusive: 50.1 µM [inhibitor, partial curve, poor fit] |  |
| O=C(Cc1ccc(Cl)cc1)Nc1ccc(-c2nnc(-c3ccco3)o2)cc1 |  | inactive: 31.5% |
| C=CCOc1cccc(CNC(C)(C)CO)c1 | inconclusive: 50.1 µM [inhibitor, partial curve, poor fit] |  |
| O=C(N/N=C/c1ccccc1)c1ccc(CN2C(=O)c3cccc4cccc2c34)cc1 |  | inactive: -3.63% |
| CCOCCn1cc(C2CCN(S(=O)(=O)c3ccc(Cl)cc3Cl)CC2)c2ccccc21 | inconclusive: 7.94 µM [inhibitor, full curve, poor fit] |  |
| O=C(CCc1ncc(-c2ccc(Cl)cc2)o1)Nc1ccc(F)cc1Cl | inconclusive: 31.6 µM [inhibitor, partial curve, poor fit] |  |
| O=C(NC1CCCC1)C(c1ccncc1)N(Cc1ccccc1)C(=O)Cc1cccs1 (centres undefined) |  | inconclusive: -35.5% [inhibitor] |
| COc1ccc(Nc2nc(-c3ccccc3F)nc3ccccc23)cc1OC | inconclusive: 0.501 µM [inhibitor, full curve, poor fit] |  |
| O=C(N1CCC(Cc2nc(C3CC3)n[nH]2)CC1)C1(c2ccccc2)CC1 |  | inactive: 26.3% |
| C=CCn1c(SCC(=O)/C(C#N)=C(\C)N)nc2sc(CC)cc2c1=O | inconclusive: 44.7 µM [inhibitor, partial curve, poor fit] |  |
| c1ccc(-c2nc(-c3ccccn3)no2)cc1 |  | inactive: 1.83% |
| COc1ccccc1N1CCN(C(=O)c2cc(S(=O)(=O)N3CCCCC3)ccc2C)CC1 |  | inactive: -23.4% |
| O=C(NCc1ccco1)Nc1ccc(OC(F)(F)F)cc1 | inconclusive: 100 µM [inhibitor, single point] |  |
| Cc1ccc(S(=O)(=O)N2CCOCC2)cc1NC(=O)CNCC1CCCCC1 |  | inactive: -20.1% |
| CN1CCN2c3ccccc3Cc3ccccc3C2C1 (centres undefined) | inconclusive: 43.2 µM [inhibitor, single point] and inconclusive: 17.8 µM [inhibitor, full curve, poor fit] |  |
| COc1ccc(OC)c(NC(=O)CS(=O)(=O)Cc2nc(-c3ccc(C)cc3)oc2C)c1 | inconclusive: 126 µM [inhibitor, single point] |  |
| CCOC(=O)C1(Cc2cccc(Cl)c2)CCCN(C(=O)c2ccco2)C1 (centres undefined) |  | inactive: 3.3% |
| CC(C)S(=O)(=O)N1CCC2(CC1)CC(N1CCN(c3ccccn3)CC1)CCO2 (centres undefined) |  | inactive: 35.5% |
